Assay [1] has as its system NP2-X4+ mice (MRGPRX4 in Mrgpra3+ NP2 sensory neurons). Kind of assay: Itch behavioral study (scratching bouts after subcutaneous nape injection) in NP2-X4+ mice. The assay is classed as in vivo, mouse. The note with it: 50 μl 10 mM nape injection, 30 min.
For a further assay, the system named is WT NP1-3 DRG neurons. Kind of assay: GCaMP6s calcium imaging of NP1-3 DRG neurons from Pirt-Cre; Rosa-lsl-GCaMP6s mice. It is filed as cell-based, mouse. The note with it: 10 µM.

As to `C[C@@H]1C[C@H]2[C@@H]3CCC4=CC(=O)C=C[C@]4(C)[C@@]3(F)[C@@H](O)C[C@]2(C)[C@@]1(O)C(=O)COP(=O)(O)O` [Dexamethasone phosphate], the “Scratching / itch behavior, NP2-X4+ mice vs WT littermates” value in assay [1] is “significantly increased scratching behavior”. In the assay with WT NP1-3 DRG neurons, the “Activation of NP1–3 neuron populations” value is on record as “few neurons were activated”.

The values above are taken from publication PMC11645656, “MRGPRX4 mediates phospho-drug associated pruritus in a humanized mouse model” (Science translational medicine, 2024).
